# The inconclusive results got no clear call from the source; some entries with a clear call stand among them for comparison. For part of these data: Potencies of inconclusive entries are doubtful fits and often do not repeat. Active and inactive are the calls of the source. Unless noted, the rule behind the calls is not given here.
# The chains behind the UniProt entries cited, without tags or fusion partners.
# UniProt P08183, whole entry, looked up: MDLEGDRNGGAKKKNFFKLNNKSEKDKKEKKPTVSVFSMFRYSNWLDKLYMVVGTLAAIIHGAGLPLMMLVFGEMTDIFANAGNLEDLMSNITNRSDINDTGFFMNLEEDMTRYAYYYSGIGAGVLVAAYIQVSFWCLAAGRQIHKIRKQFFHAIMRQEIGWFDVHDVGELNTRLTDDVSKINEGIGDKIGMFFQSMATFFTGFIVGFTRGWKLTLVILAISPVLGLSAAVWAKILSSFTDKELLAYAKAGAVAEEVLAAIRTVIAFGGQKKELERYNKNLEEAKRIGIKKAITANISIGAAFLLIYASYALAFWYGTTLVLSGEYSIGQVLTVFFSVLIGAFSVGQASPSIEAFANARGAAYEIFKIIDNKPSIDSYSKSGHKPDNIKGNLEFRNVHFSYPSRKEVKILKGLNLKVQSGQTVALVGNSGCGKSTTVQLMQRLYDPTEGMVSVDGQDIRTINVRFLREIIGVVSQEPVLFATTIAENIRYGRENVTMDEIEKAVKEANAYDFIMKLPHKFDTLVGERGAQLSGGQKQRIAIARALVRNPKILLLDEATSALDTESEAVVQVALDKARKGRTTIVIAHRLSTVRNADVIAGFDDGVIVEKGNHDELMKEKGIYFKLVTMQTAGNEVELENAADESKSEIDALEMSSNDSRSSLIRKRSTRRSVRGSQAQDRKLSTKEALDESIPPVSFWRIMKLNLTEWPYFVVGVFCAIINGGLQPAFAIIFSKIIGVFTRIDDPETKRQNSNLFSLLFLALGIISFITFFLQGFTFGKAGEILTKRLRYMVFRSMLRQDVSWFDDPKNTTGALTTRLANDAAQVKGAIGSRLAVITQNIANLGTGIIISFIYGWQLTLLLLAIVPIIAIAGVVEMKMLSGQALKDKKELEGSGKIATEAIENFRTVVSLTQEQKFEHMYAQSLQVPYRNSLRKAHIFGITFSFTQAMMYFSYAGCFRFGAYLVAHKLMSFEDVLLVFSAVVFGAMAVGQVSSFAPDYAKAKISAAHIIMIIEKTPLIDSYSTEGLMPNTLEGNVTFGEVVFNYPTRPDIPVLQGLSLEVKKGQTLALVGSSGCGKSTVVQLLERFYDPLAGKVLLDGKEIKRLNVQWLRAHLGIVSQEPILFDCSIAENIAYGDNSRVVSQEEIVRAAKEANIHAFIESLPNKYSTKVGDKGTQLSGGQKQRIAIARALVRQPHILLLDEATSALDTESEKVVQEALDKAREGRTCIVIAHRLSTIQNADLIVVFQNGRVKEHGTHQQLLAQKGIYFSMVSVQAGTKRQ
# Key:
# [1] = growth inhibition of DIPG glioma cells, dose response, cell-based, SU-DIPG-IV, MIPE4.0, CellTiter-Glo, qHTS (AID 1347063; cut-off not given, nearly all actives have AC50 up to about 30 µM;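 note: compound exposure lasted 48 hours before the viability readout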); conditions: SU-DIPG-IV viability, CellTiter-Glo ATP luminescence
# [2] = SU-DIPG-VI glioma cell viability, MIPE4.0 library, CellTiter-Glo luminescence, qHTS (AID 1347066; cut-off not given, nearly all actives have AC50 up to about 30 µM;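 note: cells exposed to compound for 48 hours before readout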); conditions: CellTiter-Glo ATP luminescence
# [3] = growth inhibition of DIPG glioma cells, dose response, cell-based, SU-DIPG-XIII, MIPE5.0, CellTiter-Glo, qHTS (AID 1347064; cut-off not given, nearly all actives have AC50 up to about 23 µM;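 for AC50: cells exposed to compound for 48 hours before the viability read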); conditions: SU-DIPG-XIII viability, CellTiter-Glo ATP luminescence
# [4] = viability loss in pontine glioma line – cell-based, SU-DIPG-XXV, MIPE5.0, CellTiter-Glo, qHTS, dose response (AID 1347065; cut-off not given, nearly all actives have AC50 up to about 26 µM;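 note: cells exposed to compound for 48 hours before ATP readout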); conditions: CellTiter-Glo ATP luminescence
# [5] = JHH-DIPG-1 glioma cell viability, MIPE5.0 library, CellTiter-Glo luminescence, qHTS (AID 1347067; cut-off not given, nearly all actives have AC50 up to about 26 µM;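 note: cells exposed to compound for 48 hours before readout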); conditions: JHH-DIPG-1 glioma viability, CellTiter-Glo ATP luminescence
# [6] = target: ATP-dependent translocase ABCB1 (Homo sapiens) (UniProt P08183); assay: MDR1 (ABCB1) efflux transporter inhibition, cell-based (AID 377; in the data active = fluorescence slope change above about 50%; inconclusive = mostly about 31% to 49%); conditions: MDR1-expressing cells, fluorescent substrate accumulation slope; stronger effect = higher value; concentration not given here
# [7] = inhibitors of polyQ aggregate elongation, biochemical, solid-phase synthetic aggregates, QA3 (AID 1585); conditions: biotin-polyQ incorporation, at 100 µM, stronger effect = higher value
# [8] = polyglutamine aggregation reduction, turbidity readout, qthio, single concentration 25 µM screen (AID 1588); conditions: at 25 µM, stronger effect = lower value
# [9] = enhancers of SMN2 over SMN1 splicing, cell-based, SMN2/SMN1 luciferase reporters (AID 1598); conditions: SMN2 vs SMN1 luciferase splicing reporter cells; at 10 µM; stronger effect = higher value
# [10] = mitochondrial permeability transition inhibitors (AID 1580); conditions: isolated mitochondria, permeability transition inhibition; active call at 10 uM (0/1): at 10 µM, stronger effect = higher value
# [11] = protection of motor neurons from glutamate death, cell-based, TUNEL DNA degradation staining, MNGlu (AID 1594); conditions: glutamate-induced death, at 1 µM, stronger effect = higher value
# [12] = SU-DIPG-XXV glioma cell viability, MIPE5.0 library, qHTS (AID 1347068; cut-off not given, nearly all actives have IC50 up to about 30 µM;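 note: cells exposed to compound for 48 hours before viability readout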)
compound,measurement,setting,value
Cc1c(-c2cccc3c(CCCOc4cccc5ccccc45)c(C(=O)O)n(Cc4cccnc4)c23)c(COc2ccc(N3CCN([S+](=O)([O-])N(C)C)CC3)cc2)nn1C,AC50,[1],inconclusive: 33.2 µM [cytotoxic]
same,AC50,[2],active: 23.5 µM
CCc1c(-c2ccccc2C)nc2c(C#N)c[nH]n2c1=O,AC50,[3],inconclusive: 7.42 µM [cytotoxic]
same,outcome,[3],inactive
same,AC50,[4],inconclusive: 4.68 µM
same,outcome,[5],inactive
O=C(CCNC(=O)c1ccc(OC(F)(F)F)cc1)N[C@@H]1CCCc2ccccc21,AC50,[3],inconclusive: 0.00331 µM
same,AC50,[4],inconclusive: 10.5 µM [cytotoxic]
Cc1ccccc1C(OCCN(C)C)c1ccccc1 (stereo not given),fluorescence slope change,[6],inactive: 22.7%
same,inhibition,[7],inconclusive: -6.38%
same,aggregation (% of control),[8],inconclusive: 90.3%
same,SMN2/SMN1 luciferase ratio,[9],inconclusive: 0.86
same,outcome,[1],inactive
C[C@H]1CNC(=O)c2cnn3ccc(nc23)N[C@H](C)c2cc(F)ccc2O1,AC50,[3],inconclusive: 2.95 µM [cytotoxic]
CCc1cccc2c3c([nH]c12)C(CC)(CC(=O)O)OCC3 (stereo not given),inhibition,[7],inconclusive: 11.9%
same,aggregation (% of control),[8],inconclusive: 119%
same,SMN2/SMN1 luciferase ratio,[9],inconclusive: 1.16
same,outcome,[1],inactive
CCO[C@@H]1OC(=O)C[C@@H]1NC(=O)[C@@H]1CCCN2C(=O)CC[C@H](NC(=O)c3nccc4ccccc34)C(=O)N12,AC50,[3],inconclusive: 0.295 µM [cytotoxic]
same,outcome,[4],inactive
COc1ccc(CNc2nc(N(CCO)CCO)nc3c2ncn3C(C)C)cc1,AC50,[3],inconclusive: 11.8 µM [cytotoxic]
COc1cc2c3c(n(CCCN4CCOCC4)c(=O)c2cc1OC)-c1cc2c(cc1C3=O)OCO2,AC50,[3],inconclusive: 18.6 µM [cytotoxic]
same,AC50,[4],inconclusive: 18.6 µM [cytotoxic]
CCn1c(=O)c(-c2ccc(Cl)cc2Cl)cc2cnc(Nc3ccc(N4CCNCC4)c(F)c3)nc21,AC50,[3],inconclusive: 0.742 µM [cytotoxic]
same,AC50,[4],active: 0.59 µM
Nc1ccc(S(=O)(=O)Nc2ccnn2-c2ccccc2)cc1,inhibition,[7],inconclusive: 13.6%
same,aggregation (% of control),[8],inconclusive: 105%
same,SMN2/SMN1 luciferase ratio,[9],inconclusive: 1.2
same,outcome,[1],inactive
same,AC50,[2],inconclusive: 0.00296 µM
CCC(=O)NS(=O)(=O)c1ccc(-c2c(-c3ccccc3)noc2C)cc1,AC50,[3],inconclusive: 18.6 µM
CCCCC(=O)O[C@]1(C(=O)CO)[C@@H](C)C[C@H]2[C@@H]3CCC4=CC(=O)C=C[C@]4(C)[C@@]3(F)[C@@H](O)C[C@@]21C,AC50,[3],inconclusive: 16.6 µM [cytotoxic]
same,AC50,[4],inconclusive: 0.00118 µM [cytotoxic]
CC(C)[C@H]1C(=O)N[C@@H](CCCN=C(N)N)C(=O)NCC(=O)N[C@@H](CC(=O)O)C(=O)N[C@H](Cc2ccccc2)C(=O)N1C,outcome,[3],inactive
same,AC50,[4],inconclusive: 18.2 µM [cytotoxic]
COc1ccc2c(c1)c(CC(=O)OCC(=O)O)c(C)n2C(=O)c1ccc(Cl)cc1,fluorescence slope change,[6],active: 79%
same,active call at 10 uM (0/1),[10],inconclusive: -1
same,inhibition,[7],inconclusive: 3.21%
same,aggregation (% of control),[8],inconclusive: 115%
same,protection,[11],inconclusive: 6%
same,SMN2/SMN1 luciferase ratio,[9],inconclusive: 1.05
same,outcome,[1],inactive
same,outcome,[2],inactive
CN1CCN(C(=O)[C@H]2[C@@H](C(=O)O)[C@H]3CC[C@@H]2O3)CC1,AC50,[3],inconclusive: 5.39 µM [cytotoxic]
CCOC(=O)N1CCN(/[N+]([O-])=N/Oc2ccc([N+](=O)[O-])cc2C#N)CC1,AC50,[1],inconclusive: 0.833 µM [cytotoxic]
same,AC50,[2],inconclusive: 10.5 µM [cytotoxic]
COc1cc2nc(N3CCN(C(=O)C4CCCO4)CC3)nc(N)c2cc1OC (stereo not given),fluorescence slope change,[6],inconclusive: 40.1%
same,outcome,[1],inactive
same,outcome,[2],inactive
COC(=O)N1CCN(Cc2cccc(NC(=O)Nc3ccc(C)nc3)c2F)CC1,outcome,[1],inactive
same,IC50,[12],inconclusive: 0.00118 µM
Cc1cc(Nc2cc(N)ncn2)c(=O)n2c1C(=O)NC21CCCCC1,AC50,[3],inconclusive: 11.5 µM [cytotoxic]
COc1cccc(Nc2ncnn3ccc(CN4CC[C@@H](N)[C@H](O)C4)c23)c1,AC50,[3],inconclusive: 2.63 µM [cytotoxic]
same,AC50,[4],inconclusive: 18.6 µM [cytotoxic]
O=C1OC2(CCC(C(=O)Nc3ccn(-c4ccccc4F)n3)CC2)c2cnccc21 (stereo not given),AC50,[3],inconclusive: 1.32 µM
same,outcome,[4],inactive
Nc1ccc(S(=O)(=O)Nc2ncccn2)cc1,inhibition,[7],inconclusive: 18.9%
same,aggregation (% of control),[8],inconclusive: 90.4%
same,SMN2/SMN1 luciferase ratio,[9],inconclusive: 1.12
same,outcome,[1],inactive

# Shown bar-delimited: part of the list above
compound | measurement | setting | value
Cc1ccccc1C(OCCN(C)C)c1ccccc1 (stereo not given) | aggregation (% of control) | [8] | inconclusive: 90.3%
CCc1cccc2c3c([nH]c12)C(CC)(CC(=O)O)OCC3 (stereo not given) | SMN2/SMN1 luciferase ratio | [9] | inconclusive: 1.16
CCCCC(=O)O[C@]1(C(=O)CO)[C@@H](C)C[C@H]2[C@@H]3CCC4=CC(=O)C=C[C@]4(C)[C@@]3(F)[C@@H](O)C[C@@]21C | AC50 | [3] | inconclusive: 16.6 µM [cytotoxic]
CC(C)[C@H]1C(=O)N[C@@H](CCCN=C(N)N)C(=O)NCC(=O)N[C@@H](CC(=O)O)C(=O)N[C@H](Cc2ccccc2)C(=O)N1C | AC50 | [4] | inconclusive: 18.2 µM [cytotoxic]

# From PubChem BioAssay
